{"source": "PubChem BioAssay AID1159578 (Peter MacCallum Cancer Centre, 2015)", "aim": "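Knock-downs that alter how fast lymphatic endothelial cells migrate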 (primary screen)", "cell system": "human lymphatic endothelial cells", "reagents": "siRNA pool against human genes, 40 nM", "timing": "48 h after transfection", "measured": "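High-content imaging of dye-stained cells in a scratch assay measures filled wound area and nuclei per well; duplicate means given as ratio to mock and robust z-score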", "scale": "migration robust z-score: higher = faster migration into the scratch; nuclei per well: higher = more cells in the well", "hit rule": "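Pools averaging fewer than 3300 nuclei are never called; remaining pools count as changed when migration robust z lies outside -2 to 2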", "meaning of the calls": "active = migration changed; inactive = no migration change, or too few cells", "note": "Shown is a random part of about 18,000 reagents tested. Over the whole deposit, about 1,030 (5.7%) were called active. 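Inactive calls also include pools with fewer than 3300 nuclei, whose migration was not assessed.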 Raw values vary from plate to plate and are shown uncorrected. Entries without a mark were called inactive. Reagents against one gene are numbered here. Not all columns of the deposit are shown."}
{"target":"KRT3","reagent":1,"migration robust z-score":0.1,"nuclei per well, duplicate mean":6291}
{"target":"XBP1","reagent":1,"migration robust z-score":0.97,"nuclei per well, duplicate mean":6290}
{"target":"TRAPPC6A","reagent":1,"migration robust z-score":-0.13,"nuclei per well, duplicate mean":6569}
{"target":"HAGH","reagent":1,"migration robust z-score":-1.04,"nuclei per well, duplicate mean":4063}
{"target":"NDUFB8","reagent":1,"migration robust z-score":0.19,"nuclei per well, duplicate mean":7210}
{"target":"SLC71A1","reagent":1,"migration robust z-score":1.5,"nuclei per well, duplicate mean":6240}
{"target":"TXNRD3","reagent":1,"migration robust z-score":-0.5,"nuclei per well, duplicate mean":6494}
{"target":"TXNRD3","reagent":2,"migration robust z-score":0.64,"nuclei per well, duplicate mean":5414}
{"target":"DOK6","reagent":1,"migration robust z-score":-0.3,"nuclei per well, duplicate mean":5693}
{"target":"R3HDM1","reagent":1,"migration robust z-score":1.16,"nuclei per well, duplicate mean":4638}
{"target":"OR2T35","reagent":1,"migration robust z-score":1.12,"nuclei per well, duplicate mean":5570}
{"target":"NDUFA5","reagent":1,"migration robust z-score":-0.29,"nuclei per well, duplicate mean":4097}
{"target":"NOS1AP","reagent":1,"migration robust z-score":0.08,"nuclei per well, duplicate mean":4854}
{"target":"OR4C6","reagent":1,"migration robust z-score":0.01,"nuclei per well, duplicate mean":4285}
{"target":"ZNF81","reagent":1,"migration robust z-score":-0.24,"nuclei per well, duplicate mean":6312}
{"target":"OR9I1","reagent":1,"migration robust z-score":0.62,"nuclei per well, duplicate mean":6080}
{"target":"UCK1","reagent":1,"migration robust z-score":-0.54,"nuclei per well, duplicate mean":5590}
{"target":"HOATZ","reagent":1,"migration robust z-score":-0.26,"nuclei per well, duplicate mean":6936}
{"target":"ADAM22","reagent":1,"migration robust z-score":1.17,"nuclei per well, duplicate mean":6518}
{"target":"C9orf78","reagent":1,"migration robust z-score":-0.5,"nuclei per well, duplicate mean":5984}
{"target":"CRLF3","reagent":1,"migration robust z-score":1,"nuclei per well, duplicate mean":7120}

Part of the list above in another layout:
{"target": "R3HDM1", "reagent": 1, "migration robust z-score": 1.16, "nuclei per well, duplicate mean": 4638}
{"target": "OR2T35", "reagent": 1, "migration robust z-score": 1.12, "nuclei per well, duplicate mean": 5570}
{"target": "NDUFA5", "reagent": 1, "migration robust z-score": -0.29, "nuclei per well, duplicate mean": 4097}
